We go through one molecule from PMC8277845.

Amino acid sequences for entries named in this document (tags omitted).
UniProt P19474: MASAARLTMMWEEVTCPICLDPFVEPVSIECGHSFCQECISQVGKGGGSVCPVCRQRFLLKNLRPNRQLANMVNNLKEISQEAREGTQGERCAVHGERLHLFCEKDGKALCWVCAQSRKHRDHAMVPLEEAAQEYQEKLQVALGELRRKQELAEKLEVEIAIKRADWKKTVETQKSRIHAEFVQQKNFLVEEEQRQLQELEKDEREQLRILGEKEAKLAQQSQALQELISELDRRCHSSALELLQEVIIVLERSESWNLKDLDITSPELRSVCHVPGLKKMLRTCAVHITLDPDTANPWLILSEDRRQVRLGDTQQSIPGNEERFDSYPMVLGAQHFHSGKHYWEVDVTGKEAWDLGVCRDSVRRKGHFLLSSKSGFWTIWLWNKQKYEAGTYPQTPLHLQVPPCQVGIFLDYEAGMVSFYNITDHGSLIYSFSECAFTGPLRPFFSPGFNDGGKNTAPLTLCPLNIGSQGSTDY

The target in the experiment is tripartite motif-containing protein 21 (TRIM21), Flag-tagged (UniProt P19474). The experiment in a line: co-IP; TRIM21-Flag co-expressed with HHARI-Myc, EFP-Myc or HERC5-Myc in HEK293 cells; lysates (Western & IP lysis buffer) immunoprecipitated with mouse control IgG or mouse Flag antibodies and protein A/G agarose, 4 h or overnight at 4 °C; blot with rabbit Flag and mouse Myc antibodies.

No constants are given. Whether binding was seen depends on the method and setting. Binding seen in cells or lysates may run through a third protein. Some binding calls cover weakened binding; strength is not graded here. Sequences can lack the tags named with a protein.

B1: HECT and RLD domain containing E3 ubiquitin protein ligase 5 (HERC5), Myc-tagged (enzyme, UniProt Q9UII4 1-1024)
chain: MERRSRRKSRRNGRSTAGKAAATQPAKSPGAQLWLFPSAAGLHRALLRRVEVTRQLCCSPGRLAVLERGGAGVQVHQLLAGSGGARTPKCIKLGKNMKIHSVDQGAEHMLILSSDGKPFEYDNYSMKHLRFESILQEKKIIQITCGDYHSLALSKGGELFAWGQNLHGQLGVGRKFPSTTTPQIVEHLAGVPLAQISAGEAHSMALSMSGNIYSWGKNECGQLGLGHTESKDDPSLIEGLDNQKVEFVACGGSHSALLTQDGLLFTFGAGKHGQLGHNSTQNELRPCLVAELVGYRVTQIACGRWHTLAYVSDLGKVFSFGSGKDGQLGNGGTRDQLMPLPVKVSSSEELKLESHTSEKELIMIAGGNQSILLWIKKENSYVNLKRTIPTLNEGTVKRWIADVETKRWQSTKREIQEIFSSPACLTGSFLRKRRTTEMMPVYLDLNKARNIFKELTQKDWITNMITTCLKDNLLKRLPFHSPPQEALEIFFLLPECPMMHISNNWESLVVPFAKVVCKMSDQSSLVLEEYWATLQESTFSKLVQMFKTAVICQLDYWDESAEENGNVQALLEMLKKLHRVNQVKCQLPESIFQVDELLHRLNFFVEVCRRYLWKMTVDASENVQCCVIFSHFPFIFNNLSKIKLLHTDTLLKIESKKHKAYLRSAAIEEERESEFALRPTFDLTVRRNHLIEDVLNQLSQFENEDLRKELWVSFSGEIGYDLGGVKKEFFYCLFAEMIQPEYGMFMYPEGASCMWFPVKPKFEKKRYFFFGVLCGLSLFNCNVANLPFPLALFKKLLDQMPSLEDLKELSPDLGKNLQTLLDDEGDNFEEVFYIHFNVHWDRNDTNLIPNGSSITVNQTNKRDYVSKYINYIFNDSVKAVYEEFRRGFYKMCDEDIIKLFHPEELKDVIVGNTDYDWKTFEKNARYEPGYNSSHPTIVMFWKAFHKLTLEEKKKFLVFLTGTDRLQMKDLNNMKITFCCPESWNERDPIRALTCFSVLFLPKYSTMETVEEALQEAINNNRGFG
On to B1, for which the binding result is “binds”.
